One substance from publication PMC7351224 can be followed below.

Protein sequences, listed by entry. Tags and fused reporters are not part of them.
UniProt O60934: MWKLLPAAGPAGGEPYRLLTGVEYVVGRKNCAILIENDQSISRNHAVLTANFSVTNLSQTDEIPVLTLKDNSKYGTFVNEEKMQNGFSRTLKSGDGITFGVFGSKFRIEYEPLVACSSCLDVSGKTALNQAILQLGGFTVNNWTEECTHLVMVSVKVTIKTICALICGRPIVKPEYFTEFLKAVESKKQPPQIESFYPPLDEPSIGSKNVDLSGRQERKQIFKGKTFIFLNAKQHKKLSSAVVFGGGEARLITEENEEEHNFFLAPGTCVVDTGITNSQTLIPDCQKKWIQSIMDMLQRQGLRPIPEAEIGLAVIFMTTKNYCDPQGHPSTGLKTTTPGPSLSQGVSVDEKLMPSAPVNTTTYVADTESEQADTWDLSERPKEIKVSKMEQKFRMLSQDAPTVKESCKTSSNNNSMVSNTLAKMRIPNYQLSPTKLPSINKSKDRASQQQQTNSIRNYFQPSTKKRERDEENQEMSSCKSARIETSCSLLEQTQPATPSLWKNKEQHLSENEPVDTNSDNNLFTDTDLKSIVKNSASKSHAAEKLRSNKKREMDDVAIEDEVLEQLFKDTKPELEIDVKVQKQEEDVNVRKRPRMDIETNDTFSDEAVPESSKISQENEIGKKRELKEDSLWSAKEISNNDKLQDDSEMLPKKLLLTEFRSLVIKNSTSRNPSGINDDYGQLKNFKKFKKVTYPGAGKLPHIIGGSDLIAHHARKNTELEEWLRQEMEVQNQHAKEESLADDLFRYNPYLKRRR

For this test, the target named is T1, TCOF1 (Treacle) (endogenous, U2OS) (human (endogenous in U2OS)) (UniProt Q13428).
T1 sequence: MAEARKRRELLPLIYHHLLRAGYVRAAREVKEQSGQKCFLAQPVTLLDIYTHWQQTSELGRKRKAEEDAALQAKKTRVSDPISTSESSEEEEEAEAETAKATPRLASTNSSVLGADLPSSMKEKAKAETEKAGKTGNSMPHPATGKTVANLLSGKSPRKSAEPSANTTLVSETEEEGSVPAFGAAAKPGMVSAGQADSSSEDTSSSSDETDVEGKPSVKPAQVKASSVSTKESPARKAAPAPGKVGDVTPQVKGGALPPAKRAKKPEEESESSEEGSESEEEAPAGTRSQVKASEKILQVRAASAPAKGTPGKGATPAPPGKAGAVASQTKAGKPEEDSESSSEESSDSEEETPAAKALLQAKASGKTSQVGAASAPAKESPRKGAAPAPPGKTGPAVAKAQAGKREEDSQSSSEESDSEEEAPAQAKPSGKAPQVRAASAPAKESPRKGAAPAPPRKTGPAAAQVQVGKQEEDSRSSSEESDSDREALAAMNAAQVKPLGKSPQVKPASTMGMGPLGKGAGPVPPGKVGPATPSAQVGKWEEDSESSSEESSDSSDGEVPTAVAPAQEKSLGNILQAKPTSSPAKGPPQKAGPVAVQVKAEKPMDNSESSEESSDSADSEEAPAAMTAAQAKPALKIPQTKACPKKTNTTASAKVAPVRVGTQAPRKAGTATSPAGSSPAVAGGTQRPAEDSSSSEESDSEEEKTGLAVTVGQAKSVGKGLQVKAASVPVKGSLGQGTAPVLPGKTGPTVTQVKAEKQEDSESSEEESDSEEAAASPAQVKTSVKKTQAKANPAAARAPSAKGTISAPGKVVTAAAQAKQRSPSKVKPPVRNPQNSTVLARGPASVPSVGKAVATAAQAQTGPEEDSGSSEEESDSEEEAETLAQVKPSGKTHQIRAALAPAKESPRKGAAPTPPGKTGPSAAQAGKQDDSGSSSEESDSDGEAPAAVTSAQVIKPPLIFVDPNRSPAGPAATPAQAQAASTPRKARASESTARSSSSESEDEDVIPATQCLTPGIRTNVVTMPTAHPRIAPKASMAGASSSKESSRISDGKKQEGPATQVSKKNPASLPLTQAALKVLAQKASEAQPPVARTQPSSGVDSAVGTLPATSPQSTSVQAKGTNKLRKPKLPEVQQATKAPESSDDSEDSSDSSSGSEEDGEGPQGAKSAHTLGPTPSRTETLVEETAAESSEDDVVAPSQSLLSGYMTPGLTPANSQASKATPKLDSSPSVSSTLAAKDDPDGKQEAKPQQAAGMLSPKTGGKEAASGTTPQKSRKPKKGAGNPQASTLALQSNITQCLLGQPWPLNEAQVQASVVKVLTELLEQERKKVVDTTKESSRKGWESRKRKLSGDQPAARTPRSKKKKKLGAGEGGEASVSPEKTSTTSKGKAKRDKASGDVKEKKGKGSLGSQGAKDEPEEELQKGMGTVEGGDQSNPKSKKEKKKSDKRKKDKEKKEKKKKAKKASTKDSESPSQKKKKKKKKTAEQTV
The experiment in a line: proximity ligation; Duolink PLA on formaldehyde-fixed U2OS-derived cells exposed to IR (5 Gy, 1 h post IR); antibodies against V5 tag and Treacle or NBS1 and Treacle; JMJD6 KO, KO+WT and KO+Mut cell lines for NBS1/Treacle.

Results are given in words; binding and its absence hold for the method and conditions named. In cells and extracts the contact can be indirect. Some entries that bind do so weakly or less than the wild type.

With “NBS1 (endogenous, U2OS) (from UniProt O60934 1-754)”, the binding result is given as “binds”.
